Measurements reported in PubChem BioAssay AID720710 (VTT Finland, 2013)

- Screen: 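siRNAs sensitising CCNE1-overexpressing U-2 OS cells to replication stress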 (primary screen)
- Cells: human U-2 OS bone cancer cells, parental and a cyclin E (CCNE1) overexpressing line
- Reagent: single siRNA against human genes, 1 µM siRNA in the printed spot mix
- Time to read-out: 67 h
- Challenge: half the arrays: hydroxyurea 2 mM for 16 h, then 3 h recovery; other arrays untreated
- Measured: 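DNA synthesis measured as imaged EdU uptake per nucleus (DAPI) at 67 h, normalised to subgrid median and given as z-score versus non-targeting controls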
- Reading the numbers: EdU z-score, cyclin E line, hydroxyurea and EdU z-score, parental, hydroxyurea and EdU z-score, cyclin E line, untreated and EdU z-score, parental, untreated: higher = more DNA synthesis than non-targeting controls
Shown is a random part of about 1,380 deposited reagents. 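One array per condition without replicates; hydroxyurea arrays received 2 mM for 16 h plus 3 h recovery.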 Reagents against one gene are numbered here.

| gene knocked down | reagent | EdU z-score, cyclin E line, hydroxyurea | EdU z-score, parental, hydroxyurea | EdU z-score, cyclin E line, untreated | EdU z-score, parental, untreated |
| --- | --- | --- | --- | --- | --- |
| SPRTN | 1 | -1.11 | -0.515 | -1.53 | -0.103 |
| SPRTN | 2 | 0.138 | 0.03 | -0.87 | 0.864 |
| CUL4B | 1 | 1.05 | 0.673 | -0.807 | -3.16 |
| CUL4B | 2 | 1.05 | 3.27 | -0.159 | -0.608 |
| LOC389901 | 1 | 0.378 | -1.63 | -0.507 | -1.5 |
| LOC389901 | 2 | 1.54 | 1.49 | 0.0167 | -0.297 |
| LOC729505 | 1 | 1.11 | 0.161 | -2.12 | -0.381 |
| LOC729505 | 2 | 1.75 | 0.814 | -0.232 | 0.0197 |
| SOD1 | 1 | -0.17 | -2.72 | -1.81 | -0.58 |
| SOD1 | 2 | 2.42 | 0.276 | 0.844 | 0.813 |
| ACTL6A | 1 | 0.235 | -4.67 | -2.15 | -0.535 |
| ACTL6A | 2 | 0.366 | 0.394 | -0.671 | 0.851 |
| TNKS2 | 1 | -0.596 | -3.91 | -1.03 | -1.69 |
| TNKS2 | 2 | 0.461 | 1.3 | 1.34 | -0.667 |
| HELZ2 | 1 | -0.398 | -2.83 | -0.576 | -3.35 |
| HELZ2 | 2 | 1.04 | 3.38 | 0.463 | -1.34 |
| LIN9 | 1 | -0.784 | -2.41 | -1.59 | -0.409 |
| LIN9 | 2 | 0.524 | 2.76 | -1.15 | 1.93 |
| HELLS | 1 | -1.27 | -1.22 | -1.44 | -1.6 |
| HELLS | 2 | -0.801 | -0.424 | -0.709 | 0.407 |
| LOC728849 | 1 | -3.49 | 0.536 | -0.82 | 0.685 |
| LOC728849 | 2 | 0.638 | 1.68 | -0.796 | 2.02 |
| FANCL | 1 | -0.717 | -4.51 | -1.41 | 0.379 |
| FANCL | 2 | -0.382 | -1.53 | 1.22 | 3.96 |
| MCM6 | 1 | 0.406 | -0.201 | -1.43 | -0.241 |
| MCM6 | 2 | 0.624 | 0.0176 | -1.08 | 0.759 |
| DKFZP686M0199 | 1 | -0.154 | -2.73 | -3.58 | -1.81 |
| DKFZP686M0199 | 2 | 1.7 | 5.03 | 0.407 | -0.0762 |
| HDAC8 | 1 | -0.205 | 0.737 | -1.03 | -0.442 |
| HDAC8 | 2 | 0.505 | 1.63 | 1.56 | 0.0317 |
| ALKBH2 | 1 | -0.313 | -3.41 | -3.76 | -0.423 |
| ALKBH2 | 2 | 1.32 | 2.39 | -2.82 | 0.956 |
| PNKP | 1 | 0.396 | -1.19 | -1.37 | -1.04 |
| PNKP | 2 | 1.11 | -0.456 | 0.168 | -0.378 |
| UBAP2L | 1 | 0.32 | -0.507 | -4.04 | -0.663 |
| UBAP2L | 2 | 0.62 | 0.546 | 0.215 | 0.379 |
| ERCC4 | 1 | -1.38 | -2.08 | -4.87 | -1.02 |
| ERCC4 | 2 | -0.208 | -1.37 | -0.866 | 0.344 |
| PSMC1 | 1 | -0.5 | 0.767 | -1.34 | -1.35 |
| PSMC1 | 2 | 0.344 | 1.76 | -1.08 | -0.34 |
